Source: the supplement of paper PMC8288183
± gives the standard deviation of the averaged measurements. This is one part of the list. Single values are uncertain, as repeats are few or missing.

Molecular target: T1, NSUN6 (UniProt Q8TEA1)
T1 sequence: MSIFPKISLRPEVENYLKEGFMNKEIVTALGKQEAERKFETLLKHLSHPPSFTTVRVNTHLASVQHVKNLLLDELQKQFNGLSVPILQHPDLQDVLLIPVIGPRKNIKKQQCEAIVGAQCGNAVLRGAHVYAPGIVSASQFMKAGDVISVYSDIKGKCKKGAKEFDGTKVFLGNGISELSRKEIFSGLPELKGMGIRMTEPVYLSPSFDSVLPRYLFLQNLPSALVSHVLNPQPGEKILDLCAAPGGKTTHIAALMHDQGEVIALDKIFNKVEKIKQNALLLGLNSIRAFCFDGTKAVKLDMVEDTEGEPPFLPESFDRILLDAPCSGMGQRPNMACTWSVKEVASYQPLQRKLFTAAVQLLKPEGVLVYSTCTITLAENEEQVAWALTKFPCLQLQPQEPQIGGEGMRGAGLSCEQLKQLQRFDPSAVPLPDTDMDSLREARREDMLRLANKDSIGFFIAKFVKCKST
Assay: m5C methylation level at the target C (C/(C+U) bisulfite reads) (fraction); higher = more methylation by NSUN6; extreme values may be limits of the assay
Conditions: HEK293T (wild-type)
Protocol: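 High-throughput mutagenesis reporter. About 140 bp oligo-pool variants of four natural Type II m5C substrates (substrate #1 chr15:91425541; #2 RAB15 3'UTR chr14:65413377; #3 SULT2A1 5'UTR chr19:48389569; #4 NAAA CDS chr4:76857361) were cloned as 3'UTR elements of psiCHECK-2 luciferase and transfected into wild-type HEK293T cells. Total RNA was taken 48 h later and m5C level was measured by targeted bisulfite sequencing as C/(C+U) reads at the m5C site (one library).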

[1] = parent substrate: substrate #1 (main figure)

Row | Sequence | m5C methylation level at the target C [1] | m5C methylation level at the target C (parent substrate: substrate #2) | m5C methylation level at the target C (parent substrate: substrate #3) | m5C methylation level at the target C (parent substrate: substrate #4)
1 | CCUGUU | 0.000808 | 0 | 0.00139 | 0.00128
2 | CCGUAU | 0.00478 | 0.00202 | 0 | 0.00583
3 | GCGUGC | 0.0513 | 0.00197 | 0.00238 | 0.000885
4 | ACCUCC | 0.00138 | 0.00666 | 0.0102 | 0.00498
5 | CCACGG | 0 | 0 | 0.000398 | 0
6 | UCUGGA | 0 | 0.000908 | 0.000519 | 0
7 | GCAUGU | 0.00211 | 0.00134 | 0.000621 | 0.00117
8 | GCUGUG | 0.00138 | 0 | 0.00337 | 0
9 | GCAUAG | 0.000677 | 0 | 0.0026 | 0.000962
10 | CCUAUA | 0.00152 | 0 | 0.000618 | 0.00397
11 | UCCGAC | 0 | 0.00149 | 0.00126 | 0
12 | CCCCGA | 0.000915 | 0 | 0.00062 | 0.00443
13 | ACUCAG | 0.000561 | 0 | 0.002 | 0.000661
14 | GCGUGG | 0.00577 | 0.00152 | 0.00508 | 0
15 | ACACAU | 0 | 0 | 0 | 0
16 | UCCAAA | 0 | 0 | 0 | 0
17 | UCCCAG | 0.00414 | 0.00186 | 0 | 0
18 | CCGUUC | 0 | 0.00394 | 0.00139 | 0.00242
19 | ACCCUC | 0.00058 | 0.00391 | 0.00358 | 0
20 | UCGUCA | 0 | 0 | 0.00129 | 0.00187
21 | ACGAGC | 0.00871 | 0.00102 | 0 | 0.00118
22 | GCUGAC | 0.00896 | 0.000692 | 0.00597 | 0.002
23 | ACAGAC | 0.00087 | 0 | 0.00623 | 0
24 | GCAGGA | 0.000495 | 0.00524 | 0.000671 | 0.00187
25 | UCCUCG | 0.0011 | 0.000821 | 0.00143 | 0

A stretch from further up, for reference:
Row | Sequence | m5C methylation level at the target C [1] | m5C methylation level at the target C (parent substrate: substrate #2) | m5C methylation level at the target C (parent substrate: substrate #3) | m5C methylation level at the target C (parent substrate: substrate #4)
1 | CCUGUU | 0.000808 | 0 | 0.00139 | 0.00128
2 | CCGUAU | 0.00478 | 0.00202 | 0 | 0.00583
3 | GCGUGC | 0.0513 | 0.00197 | 0.00238 | 0.000885
4 | ACCUCC | 0.00138 | 0.00666 | 0.0102 | 0.00498
5 | CCACGG | 0 | 0 | 0.000398 | 0
6 | UCUGGA | 0 | 0.000908 | 0.000519 | 0
7 | GCAUGU | 0.00211 | 0.00134 | 0.000621 | 0.00117
8 | GCUGUG | 0.00138 | 0 | 0.00337 | 0
9 | GCAUAG | 0.000677 | 0 | 0.0026 | 0.000962
10 | CCUAUA | 0.00152 | 0 | 0.000618 | 0.00397
11 | UCCGAC | 0 | 0.00149 | 0.00126 | 0
12 | CCCCGA | 0.000915 | 0 | 0.00062 | 0.00443
13 | ACUCAG | 0.000561 | 0 | 0.002 | 0.000661

Carrying on:

Row | Sequence | m5C methylation level at the target C [1] | m5C methylation level at the target C (parent substrate: substrate #2) | m5C methylation level at the target C (parent substrate: substrate #3) | m5C methylation level at the target C (parent substrate: substrate #4)
26 | GCUCUG | 0 | 0.00193 | 0.00473 | 0.00221
27 | UCGCCA | 0 | 0.00231 | 0.00656 | 0.00121
28 | CCCAGG | 0 | 0 | 0.0014 | 0.000719
29 | ACAAGG | 0 | 0.00422 | 0.000612 | 0
30 | UCACCC | 0 | 0.000783 | 0.00261 | 0
31 | CCAUAA | 0 | 0.000783 | 0.0015 | 0
32 | CCUCAG | 0.00116 | 0.00196 | 0.000638 | 0.000946
33 | GCAAGG | 0.00334 | 0 | 0 | 0.00168
34 | UCCCUA | 0 | 0.00327 | 0.00117 | 0.00182
35 | GCGUUG | 0.00217 | 0 | 0.00085 | 0
36 | GCUGAA | 0.00229 | 0.00351 | 0.000894 | 0.000614
37 | ACAUCC | 0 | 0 | 0.00496 | 0
38 | ACUGCA | 0.000775 | 0.00258 | 0.000516 | 0.00168
39 | UCGCAU | 0 | 0.00693 | 0.000823 | 0.00493
40 | GCGGGA | 0.00487 | 0.000969 | 0.00315 | 0.00106
41 | CCUAUG | 0 | 0.00102 | 0.00146 | 0
42 | GCGGAU | 0.000507 | 0.00443 | 0 | 0.00249
43 | UCGGAU | 0 | 0 | 0.000988 | 0.0196
44 | CCGAUA | 0.00404 | 0.00128 | 0.000618 | 0.000908
45 | CCGCCG | 0.0037 | 0.00143 | 0.00414 | 0
46 | GCCGAG | 0.00126 | 0.00161 | 0.000983 | 0.00309
47 | ACCGGG | 0 | 0.00602 | 0 | 0.0114
48 | ACAGUU | 0 | 0 | 0 | 0
49 | CCCCCC | 0 | 0 | 0.00152 | 0
50 | GCGAUG | 0.00189 | 0 | 0.000577 | 0.00119

Row | Sequence | m5C methylation level at the target C [1] | m5C methylation level at the target C (parent substrate: substrate #2) | m5C methylation level at the target C (parent substrate: substrate #3) | m5C methylation level at the target C (parent substrate: substrate #4)
51 | CCCGCG | 0.00146 | 0 | 0.00068 | 0.00165
52 | CCUAUU | 0.000855 | 0 | 0.000473 | 0.00253
53 | UCGCCC | 0.00164 | 0.000691 | 0 | 0.0018
54 | UCGGUA | 0.00233 | 0.00842 | 0 | 0.000903
55 | GCUACC | 0.00127 | 0.00409 | 0 | 0.0199
56 | ACGCCC | 0 | 0.00458 | 0.000457 | 0
57 | GCAGCG | 0.00212 | 0 | 0 | 0
58 | UCGAGC | 0 | 0.00095 | 0.00271 | 0
59 | GCACGU | 0.00158 | 0.00233 | 0.0118 | 0.00182
60 | CCUUGU | 0.00215 | 0 | 0.00135 | 0.000478
61 | ACUGUU | 0.00127 | 0 | 0 | 0
62 | UCAUAG | 0.000955 | 0.00256 | 0.000651 | 0.000906
63 | ACAGUC | 0 | 0.0101 | 0 | 0.00683
64 | CCAAUC | 0 | 0.00111 | 0.000638 | 0.000954
65 | GCCCGA | 0.00127 | 0.00838 | 0.00163 | 0.00625
66 | ACUCCA | 0.556 | 0.137 | 0.454 | 0.493 ± 0.021
67 | CCCGGA | 0.00264 | 0.00112 | 0 | 0.00101
68 | CCUGAG | 0 | 0.00298 | 0.000372 | 0
69 | GCCUAC | 0.00268 | 0 | 0 | 0
70 | UCACGC | 0 | 0 | 0.00122 | 0.00136
71 | CCAGUA | 0.00378 | 0 | 0.00303 | 0.000569
72 | UCUAUC | 0.000628 | 0 | 0.00219 | 0
73 | CCCUAA | 0.0172 | 0 | 0.00134 | 0.000805
